At least one structure is not confirmed: it was looked up by name or label, or the drawing left a doubt.
Key:
Format in all cases: cell-based
R-type Ca^2+ channel = test: Ca2+ channel blockers tested on the R-type channel (data not shown)
MG63 and FAOS-2 = test: Spontaneous proliferation of human osteoblast cancer lines; settings: nifedipine 10^−6M
[1] = test system: human aortic vascular smooth muscle cell line; test: Spontaneous proliferation of human aortic vascular smooth muscle cell line; settings: nifedipine 10^−7M

Compound | block of R-type Ca2+ channel (R-type Ca^2+ channel) | spontaneous cell proliferation (MG63 and FAOS-2) | spontaneous proliferation [1]
COC(=O)C1=C(C)NC(C)=C(C(=O)OCCN(C)Cc2ccccc2)C1c1cccc([N+](=O)[O-])c1 (stereo not drawn) [nicardipine] | none were found to block the R-type Ca^2+ | – | –
COC(=O)C1=C(C)NC(C)=C(C(=O)OC)C1c1ccccc1[N+](=O)[O-] [nifedipine] | – | had no effect | but not

— US7109175B1, “Specific steady-state R-type CA2+ channel blockers and use thereof” (Universite de Sherbrooke, priority 2000, dated 2006)
